Measurements from US12378199B2, “Rigidified pentadentate chelating agents useful for the [Al18F]2+ labelling of biomolecules” (UNIVERSITÀ DEGLI STUDI DEL PIEMONTE ORIENTALE “A. AVOGADRO”, priority 2019, dated 2025).
Where “and” joins values, the source holds several entries; their conditions need not be identical. Identical values can stand only once.

Assay: labelling of the chelating agents with [AlF-18]2+ (radiolabelling efficiency/yield)

`O=C(O)CN(CC(=O)O)CC1CCCCN1Cc1cc([N+](=O)[O-])ccc1O` (stereo not shown) [2-AMPDA-NHB] showed a radiolabelling efficiency (pH 5, ambient temperature) of 69%.

`O=C(O)CN(CC(=O)O)CC1CCCCN1CC(=O)O` (stereo not shown) [2-AMPTA] showed a radiolabelling efficiency (37° C., pH 5) of 75% and a radiolabelling efficiency (pH 5, ambient temperature) of 79%.

With `O=C(O)CN(Cc1ccccc1O)CC1CCCCN1CC(=O)O` (stereo not shown) [2-AMPDA-HB] the radiolabelling efficiency (37° C., pH 5) was 60% and 68%, the radiolabelling efficiency (pH 5, ambient temperature) was 54% and the radiolabelling yield (pH 6) was 65%. For the same compound, the radiolabelling yield (pH 6.5) was 43.5%.
